Here are results for 25 compounds from PubChem BioAssay AID248 (DTP/NCI, 2004).

The test system of the assay is L1210 leukemia ip in BDF1 mice, survival T/C. Put plainly: NCI In Vivo Anticancer Drug Screen. Data for tumor model L1210 Leukemia (intraperitoneal) in B6D2F1 (BDF1) mice. The settings on record: higher T/C = longer survival.
Where [1] appears, read: T/C endpoint: mean survival time, dose: 400.0 mg/kg/injection, schedule: Q04DX003 (ip), vehicle: Klucel (hydroxypropylcellulose) (HPC).
[2] abbreviates: T/C endpoint: mean survival time, dose: 200.0 mg/kg/injection, schedule: Q01DX001 (ip), vehicle: saline.
The mark [3] stands for this setting: T/C endpoint: mean survival time, dose: 150.0 mg/kg/injection, schedule: Q01DX001 (ip), vehicle: saline.
Setting [4] is: T/C endpoint: mean survival time, dose: 300.0 mg/kg/injection, schedule: Q01DX001 (ip), vehicle: saline.
The mark [5] stands for this setting: T/C endpoint: mean survival time, dose: 400.0 mg/kg/injection, schedule: Q01DX001 (ip), vehicle: saline.
The mark [6] stands for this setting: T/C endpoint: mean survival time, dose: 100.0 mg/kg/injection, schedule: Q01DX001 (ip), vehicle: saline.
Where [7] appears, read: T/C endpoint: mean survival time, dose: 400.0 mg/kg/injection, schedule: Q04DX002 (ip), vehicle: Klucel (hydroxypropylcellulose) (HPC).
The mark [8] stands for this setting: T/C endpoint: mean survival time, dose: 400.0 mg/kg/injection, schedule: Q04DX003 (ip), vehicle: saline with Tween-80.
Setting [9] is: T/C endpoint: mean survival time, dose: 400.0 mg/kg/injection, schedule: Q04DX003 (ip), vehicle: saline.

The list is a part of this screen's results and no random one: it is rich in T/C values a quarter to a half above the control, in often repeated tests (any T/C) and in doses without a T/C. Other doses and runs of a compound stand elsewhere. T/C gives the treated animals as a percentage of the vehicle group. Some entries give survivors of the animals treated and no T/C: the source holds a T/C of zero for them, seemingly a mark for toxic or unscored doses. Some survivor counts are full or nearly so, which does not show that the dose was tolerated: survival well below the control is almost never listed, so the zero probably covers shortened survival too. Survivors were counted at the toxicity check, usually on the fifth day, unless a day is given; later deaths do not show. Schedules are NCI's codes, taken here to give the interval after Q, in days (D) or hours (H), and the number of doses after X. Some schedules carry Z or #; the key to these is not given. Some entries hold several experiments; the results are listed from low to high. Where survival is the endpoint, this PubChem deposit counts one and a half times the control or more as active, and values a quarter to a half above the control carry no call in these data; other NCI protocols may use other cut-offs. Some T/C values carry the count of animals alive at the toxicity check (mostly the fifth day); without a count, all were alive then.

For `OC(c1cc(Nc2ccc(Cl)cc2)nc2ccccc12)C1CCCCN1` (stereo unspecified), the survivor count under setting [1] is given as 4 of 6.

Regarding `c1ccc(CNc2ncnc3[nH]ncc23)cc1`, the survivor count reads like this: (T/C endpoint: mean survival time, dose: 64.0 mg/kg/injection, schedule: Q01DX009 (ip), vehicle: saline) 6 of 6; (T/C endpoint: mean survival time, dose: 75.0 mg/kg/injection, schedule: Q01DX Z (ip), vehicle: carboxymethylcellulose (CMC)) 5 of 6; (T/C endpoint: mean survival time, dose: 100.0 mg/kg/injection, schedule: Q01DX Z (ip), vehicle: carboxymethylcellulose (CMC)) 0 of 6. Further, the T/C (T/C endpoint: median survival time, dose: 32.0 mg/kg/injection, schedule: Q01DX009 (ip), vehicle: saline) was 125 % of control.

Take `CC(Cl)(CCl)C(=O)O` (stereo unspecified): under setting [2], the survivor count is 1 of 3.

Regarding `CCCCCCCC[n+]1ccc(C#N)cc1`, the survivor count is, setting by setting: under setting [3], 0 of 6; under setting [4], 0 of 6.

In the case of `CN(C)CCNc1ccc([N+](=O)[O-])c2sc3ccccc3c(=O)c12`, the T/C was 126 % of control (T/C endpoint: mean survival time, dose: 8.0 mg/kg/injection, schedule: Q01DX Z (ip), vehicle: methylcellulose (MC)); 107 [5 of 6 alive], 134, 144, 153 % of control (T/C endpoint: mean survival time, dose: 12.0 mg/kg/injection, schedule: Q01DX Z (ip), vehicle: methylcellulose (MC)); 137 % of control (T/C endpoint: mean survival time, dose: 17.7 mg/kg/injection, schedule: Q01DX Z (ip), vehicle: carboxymethylcellulose (CMC)); 128 % of control (T/C endpoint: mean survival time, dose: 18.0 mg/kg/injection, schedule: Q01DX Z (ip), vehicle: carboxymethylcellulose (CMC)); 102 [4 of 6 alive], 155, 163, 177 % of control (T/C endpoint: mean survival time, dose: 18.0 mg/kg/injection, schedule: Q01DX Z (ip), vehicle: methylcellulose (MC)); 142 % of control (T/C endpoint: mean survival time, dose: 40.0 mg/kg/injection, schedule: Q01DX Z (ip), vehicle: carboxymethylcellulose (CMC)). Moreover, the T/C (T/C endpoint: mean survival time, dose: 41.0 mg/kg/injection, schedule: Q01DX Z (ip), vehicle: methylcellulose (MC)) was 131 % of control. The survivor count reads like this: (T/C endpoint: mean survival time, dose: 40.0 mg/kg/injection, schedule: Q01DX Z (ip), vehicle: methylcellulose (MC)) 1 of 6; (T/C endpoint: mean survival time, dose: 60.0 mg/kg/injection, schedule: Q01DX Z (ip), vehicle: carboxymethylcellulose (CMC)) 5 of 6; (T/C endpoint: mean survival time, dose: 60.0 mg/kg/injection, schedule: Q01DX Z (ip), vehicle: methylcellulose (MC)) 6 of 6; (T/C endpoint: mean survival time, dose: 90.0 mg/kg/injection, schedule: Q01DX Z (ip), vehicle: carboxymethylcellulose (CMC)) 6 of 6; (T/C endpoint: mean survival time, dose: 90.0 mg/kg/injection, schedule: Q01DX Z (ip), vehicle: methylcellulose (MC)) 6 of 6.

For the compound `CN1CCCC2C(c3ccccc3)C(C3=NCCCC3)C(c3ccccc3)CC21` (stereo unspecified), the survivor count reads like this: under setting [2], 0 of 4; under setting [5], 0 of 4.

As for `O=[N+]([O-])c1ccc(Cc2ccccn2)cc1`, the survivor count (T/C endpoint: mean survival time, dose: 400.0 mg/kg/injection, schedule: Q01DX009 (ip), vehicle: Klucel (hydroxypropylcellulose) (HPC)) is on record as 3 of 6.

As to `O=C(CSc1ccccc1)NCc1cnccn1`, the survivor count (T/C endpoint: mean survival time, dose: 400.0 mg/kg/injection, schedule: Q01DX009 (ip), vehicle: saline) is on record as 3 of 6.

With `CC1(C)N=C(N)N=C(N)N1c1ccc(Cc2ccccc2)cc1`, the survivor count runs as follows: under setting [6], 0 of 6; under setting [2], 0 of 6; under setting [5], 0 of 6.

Take `C[N+](C)(C)CCCCCCCCCC[N+](C)(C)CCCCCCCCCC[N+](C)(C)CCCCCCCCCC[N+](C)(C)C`: the survivor count by setting is: (T/C endpoint: mean survival time, dose: 100.0 mg/kg/injection, schedule: Q04DX003 (ip), vehicle: Klucel (hydroxypropylcellulose) (HPC)) 0 of 6; (T/C endpoint: mean survival time, dose: 200.0 mg/kg/injection, schedule: Q04DX003 (ip), vehicle: Klucel (hydroxypropylcellulose) (HPC)) 0 of 6; under setting [1], 0 of 6.

With `O=S(=O)(CCCl)c1ccc2ccccc2c1`, the survivor count (T/C endpoint: mean survival time, dose: 200.0 mg/kg/injection, schedule: Q04DX002 (ip), vehicle: Klucel (hydroxypropylcellulose) (HPC)) is 1 of 3 and the survivor count under setting [7] was 0 of 3.

Consider `C#CCOCCBr`, for which the survivor count under setting [8] is 0 of 6.

On to `COc1nc(=S)n2[nH]cnc2n1`, for which the survivor count under setting [9] is recorded as 3 of 6.

On to `N#CCCSCCc1ccccc1`, for which the survivor count (T/C endpoint: mean survival time, dose: 300.0 mg/kg/injection, schedule: Q01DX009 (ip), vehicle: saline with Tween-80) is 3 of 6.

Turning to `N/C([Se])=N\N=C/c1ccncc1`, the survivor count (T/C endpoint: mean survival time, dose: 100.0 mg/kg/injection, schedule: Q01DX001 (ip), vehicle: Klucel (hydroxypropylcellulose) (HPC)) is 0 of 6; the survivor count (T/C endpoint: mean survival time, dose: 200.0 mg/kg/injection, schedule: Q01DX001 (ip), vehicle: Klucel (hydroxypropylcellulose) (HPC)) is reported as 0 of 6; the survivor count (T/C endpoint: mean survival time, dose: 400.0 mg/kg/injection, schedule: Q01DX001 (ip), vehicle: Klucel (hydroxypropylcellulose) (HPC)) was 0 of 6.

On to `Cc1ccc(C(=O)CC(Sc2ccccc2N)c2c(Cl)cccc2Cl)c(C)c1` (stereo unspecified), for which, under “T/C endpoint: mean survival time, dose: 400.0 mg/kg/injection, schedule: Q01DX005 (ip), vehicle: Klucel (hydroxypropylcellulose) (HPC)”, the survivor count is 3 of 3.

Consider `CC1(C)N=C(N)N=C(N)N1c1cccc(CCCc2ccccc2)c1`, for which the survivor count (T/C endpoint: mean survival time, dose: 50.0 mg/kg/injection, schedule: Q01DX001 (ip), vehicle: saline) was 1 of 3; the survivor count under setting [6] is 0 of 3 and 0 of 6; the survivor count under setting [2] is 0 of 6; the survivor count under setting [5] was 0 of 6.

For the compound `O=C(CCCN1CC=C(N2CCc3ccccc32)CC1)c1ccc(F)cc1`, the survivor count under setting [8] is 6 of 6.

For the compound `OC(CNc1ccccc1)CN1CCCC1` (stereo unspecified), the survivor count under setting [9] is 2 of 6.

For the compound `O=C(O)C(Cl)C(=O)O`, the survivor count is, setting by setting: (T/C endpoint: mean survival time, dose: 75.0 mg/kg/injection, schedule: Q04DX003 (ip), vehicle: saline) 3 of 6; under setting [3], 0 of 6; under setting [4], 1 of 6.

In the case of `[O-][n+]1ccc2ccccc2c1`, the survivor count is, setting by setting: under setting [7], 1 of 3; under setting [9], 0 of 6.

As for `NC(CSCc1ccccc1)C(=O)O` (stereo unspecified), the survivor count is, setting by setting: (T/C endpoint: mean survival time, dose: 400.0 mg/kg/injection, schedule: Q01DX001 (ip), vehicle: carboxymethylcellulose (CMC)) 2 of 4; (T/C endpoint: mean survival time, dose: 466.0 mg/kg/injection, schedule: Q01DX015 (ip), vehicle: saline) 2 of 6.

On to `CN=C(NC)Nc1ccc(NC(=O)c2ccc(C(=O)Nc3ccc(NC(=NC)NC)cc3)cc2)cc1`, for which the T/C was 127 % of control (T/C endpoint: mean survival time, dose: 9.0 mg/kg/injection, schedule: Q01DX Z (oral), vehicle: carboxymethylcellulose (CMC)); 125 % of control (T/C endpoint: mean survival time, dose: 13.0 mg/kg/injection, schedule: Q01DX Z (ip), vehicle: carboxymethylcellulose (CMC)); 135 % of control (T/C endpoint: mean survival time, dose: 17.0 mg/kg/injection, schedule: Q01DX001 (ip), vehicle: carboxymethylcellulose (CMC)); 128 % of control (T/C endpoint: mean survival time, dose: 17.0 mg/kg/injection, schedule: Q01DX001 (ip), vehicle: other); 143 % of control (T/C endpoint: mean survival time, dose: 26.0 mg/kg/injection, schedule: Q01DX001 (ip), vehicle: carboxymethylcellulose (CMC)); 131 % of control (T/C endpoint: mean survival time, dose: 26.0 mg/kg/injection, schedule: Q01DX001 (ip), vehicle: other). Moreover, the T/C (T/C endpoint: mean survival time, dose: 39.0 mg/kg/injection, schedule: Q01DX001 (ip), vehicle: carboxymethylcellulose (CMC)) was 146 % of control. Also, the survivor count runs as follows: (T/C endpoint: mean survival time, dose: 53.0 mg/kg/injection, schedule: Q01DX Z (ip), vehicle: carboxymethylcellulose (CMC)) 2 of 6; (T/C endpoint: mean survival time, dose: 107.0 mg/kg/injection, schedule: Q01DX Z (ip), vehicle: carboxymethylcellulose (CMC)) 1 of 6; (T/C endpoint: mean survival time, dose: 215.0 mg/kg/injection, schedule: Q01DX Z (ip), vehicle: carboxymethylcellulose (CMC)) 0 of 6; (T/C endpoint: mean survival time, dose: 430.0 mg/kg/injection, schedule: Q01DX Z (ip), vehicle: carboxymethylcellulose (CMC)) 0 of 6.

With `C1CNC2CCCC2C1` (stereo unspecified), the survivor count (T/C endpoint: mean survival time, dose: 150.0 mg/kg/injection, schedule: Q01DX001 (ip), vehicle: carboxymethylcellulose (CMC)) is on record as 4 of 6 and the survivor count (T/C endpoint: mean survival time, dose: 300.0 mg/kg/injection, schedule: Q01DX001 (ip), vehicle: carboxymethylcellulose (CMC)) is listed as 2 of 6.

For the compound `CN(C)CCCNc1c2ccccc2nc2ccccc12`, the survivor count (T/C endpoint: mean survival time, dose: 80.0 mg/kg/injection, schedule: Q01DX001 (ip), vehicle: saline) is recorded as 3 of 4.
